From publication PMC5520057, “Modulation of nongenomic activation of PI3K signalling by tetramerization of N-terminally-cleaved RXRα” (Nature Communications, 2017)

The chains behind the UniProt entries cited, without tags or fusion partners. Where a name states a change or a piece, a line headed by the entry shows the natural chain unless it says otherwise. Residues count along the entry.
UniProt P19793, residues 81-462: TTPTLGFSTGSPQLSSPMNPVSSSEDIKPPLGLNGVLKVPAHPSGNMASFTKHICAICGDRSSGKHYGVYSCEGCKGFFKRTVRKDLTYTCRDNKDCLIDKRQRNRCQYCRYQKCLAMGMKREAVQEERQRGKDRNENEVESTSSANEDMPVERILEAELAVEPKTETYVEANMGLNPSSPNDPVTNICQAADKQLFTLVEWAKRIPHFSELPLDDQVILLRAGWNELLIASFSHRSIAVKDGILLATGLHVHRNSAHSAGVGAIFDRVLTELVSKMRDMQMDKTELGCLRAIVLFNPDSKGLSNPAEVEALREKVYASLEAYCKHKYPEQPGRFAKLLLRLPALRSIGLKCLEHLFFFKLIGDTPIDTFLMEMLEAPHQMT
UniProt P27986: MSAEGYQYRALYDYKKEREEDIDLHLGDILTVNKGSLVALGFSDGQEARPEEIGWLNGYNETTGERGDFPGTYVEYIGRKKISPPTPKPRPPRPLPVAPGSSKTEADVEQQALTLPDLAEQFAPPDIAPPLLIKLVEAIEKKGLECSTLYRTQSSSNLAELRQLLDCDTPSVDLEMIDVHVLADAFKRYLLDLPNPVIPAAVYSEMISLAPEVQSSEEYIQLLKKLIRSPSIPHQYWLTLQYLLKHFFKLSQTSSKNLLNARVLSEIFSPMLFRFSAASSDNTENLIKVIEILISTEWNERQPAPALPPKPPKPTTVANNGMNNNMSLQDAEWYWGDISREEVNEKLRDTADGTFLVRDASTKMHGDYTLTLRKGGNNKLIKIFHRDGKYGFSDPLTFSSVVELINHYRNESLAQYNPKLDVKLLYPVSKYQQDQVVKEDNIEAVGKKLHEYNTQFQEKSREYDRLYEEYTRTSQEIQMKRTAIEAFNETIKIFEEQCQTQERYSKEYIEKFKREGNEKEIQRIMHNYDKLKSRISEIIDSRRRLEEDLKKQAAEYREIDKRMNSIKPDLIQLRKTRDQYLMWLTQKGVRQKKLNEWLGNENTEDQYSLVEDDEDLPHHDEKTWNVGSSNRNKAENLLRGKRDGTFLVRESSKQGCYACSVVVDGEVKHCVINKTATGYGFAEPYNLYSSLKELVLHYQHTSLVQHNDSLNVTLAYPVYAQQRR

Columns and labels:
Myc-tRXRα (human) [1] = target: Myc-tRXRα (human) (UniProt P19793); test: co-IP; transfected cells (HEK293T; HepG2 for Fig. 3e; A549 for Fig. 4h), with or without 9-cis-RA (10^-7 M), TNFα (10 ng/ml) or K-80003 (5 x 10^-6 M); lysis in 20 mM Tris pH 7.5, 150 mM NaCl, 1% Triton X-100; antibody 12 h at 4 °C, protein A-Sepharose, immunoblot
Myc-tRXRα (human) [2] = target: Myc-tRXRα (human) (UniProt P19793); test: cross-linking; cells (HepG2, HEK293T, MCF-7) transfected for 24 h, treated with 9-cis-RA (10^-7 M) and/or K-80003 (5 x 10^-6 M) for 6 h; lysates or fractions incubated with 1 mM BS3, SDS-PAGE and western blotting

Question: What does the source list for HA-p85α-ΔiSH2 (from UniProt P27986)?
Answer: binding (Myc-tRXRα (human) [1]): binds; binding (Myc-tRXRα (human) [2]): binds

No constants are given. Whether binding was seen depends on the method and setting. In cells and extracts the contact can be indirect. Binding can be weak; no strength is given.
